Experimental data from patent US20040138133A1.
These are yes or no findings as the source states them, for the method shown. In cells and extracts the contact can be indirect. Some results given as binding are weak or reduced against the parent protein; the word gives no strength.

Columns and labels:
[1] = target: Nck (adapter protein) from detergent extracts of human endothelial cells (human) (UniProt P16333); test: peptide-agarose pull-down from human endothelial cell lysate, anti-Nck western blot
[2] = target: Nck (adapter protein) from detergent extracts of human endothelial cells (human) (UniProt P16333); test: peptide-agarose pull-down from human endothelial cell lysate, anti-Nck western blot (summary of Example 1)

binding [1]: binds | binding [2]: binds
B1: PRO peptide (13 residues from the first proline-rich domain of PAK1) lacking the Tat sequence, with a cysteine for coupling to agarose (peptide)
peptide: KPPAPPMRNTSTMC
modifications: terminal cysteine coupled to activated thiol-Sepharose (agarose) beads
